## Screening data, single-dose tests

The chains behind the UniProt entries cited, without tags or fusion partners.
UniProt P9WFT3, whole entry: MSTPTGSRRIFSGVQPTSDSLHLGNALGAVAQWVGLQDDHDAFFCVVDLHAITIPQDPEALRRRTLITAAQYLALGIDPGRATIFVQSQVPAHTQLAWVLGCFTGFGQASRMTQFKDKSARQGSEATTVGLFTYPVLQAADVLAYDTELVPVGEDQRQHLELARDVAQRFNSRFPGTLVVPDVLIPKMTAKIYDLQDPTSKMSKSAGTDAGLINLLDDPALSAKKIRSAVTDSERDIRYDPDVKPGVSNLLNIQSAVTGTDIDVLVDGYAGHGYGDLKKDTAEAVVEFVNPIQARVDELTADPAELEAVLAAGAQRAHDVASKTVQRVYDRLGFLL
UniProt P9WNZ1, whole entry: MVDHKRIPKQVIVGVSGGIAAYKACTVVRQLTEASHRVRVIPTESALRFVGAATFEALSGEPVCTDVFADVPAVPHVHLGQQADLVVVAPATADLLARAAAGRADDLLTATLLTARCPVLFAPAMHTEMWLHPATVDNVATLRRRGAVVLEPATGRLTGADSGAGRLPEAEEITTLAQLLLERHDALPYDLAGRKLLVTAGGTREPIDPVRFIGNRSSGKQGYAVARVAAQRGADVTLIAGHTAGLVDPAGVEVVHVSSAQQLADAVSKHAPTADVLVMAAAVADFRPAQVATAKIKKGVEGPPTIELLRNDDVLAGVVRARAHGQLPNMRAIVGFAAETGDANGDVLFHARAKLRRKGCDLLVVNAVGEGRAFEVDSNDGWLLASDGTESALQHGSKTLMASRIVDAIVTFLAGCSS

Leishmania in macrophages: 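Cell assay of Leishmania donovani living inside macrophages; the read-out is not stated. Concentration: 30 µM. Direction is inferred from retests: higher values go with stronger inhibition. About 69,000 compounds were tested under these conditions; 1.5% (about 1,000) showed 50% or more at least once.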
MtTrpRS: 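Enzyme assay of tryptophanyl-tRNA synthetase; the read-out is not stated. Target: Tryptophan-tRNA ligase, Mycobacterium tuberculosis (UniProt P9WFT3). Concentration: 10 µM. Direction is not recorded; retested compounds ran higher, which suggests that high means inhibition. Size under these conditions: about 65,000 compounds, about 64 of them at 50% or above in at least one test.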
Toxoplasma: 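Assay of Toxoplasma gondii numbers, read through their beta-galactosidase reporter with a colour substrate. Concentration: 10 µM. Higher reads as fewer parasites (inferred from which compounds were picked for retests). Size under these conditions: about 67,000 compounds, about 260 of them at 50% or above in at least one test.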
CoaBC: 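Enzyme assay of CoaBC with a phosphate dye (Biomol Green) read at 650 nm. Target: Coenzyme A biosynthesis protein CoaBC, Mycobacterium tuberculosis (UniProt P9WNZ1). Tested at 30 µM. Direction is inferred from only a few compounds that gave an IC50; most scored high, so higher reads as stronger inhibition. Most strong results did not repeat in a second test. About 67,000 compounds were tested under these conditions; 0.06% (about 40) showed 50% or more at least once.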

The filed quantity is “Percent Effect” (%). How 0% and 100% were set is not recorded. Most values in the screen are low, and negative values occur. Compounds were drawn at random from those tested, without regard to their results.

With O=C(NC[C@]12COC[C@H]1CN(Cc1cccnc1)C2)c1ccsc1 the screen gave MtTrpRS: -2.616%; CoaBC: 3.782%. Cl.OC1(Cn2ccc3ncccc32)CCN(Cc2ccccc2F)CC1 read Leishmania in macrophages: 9.222%; Toxoplasma: 9.34%. For CN(C)CCNCCC(c1ccccc1)C1CCOC(C)(C)C1.O=C(O)C(=O)O (stereo not drawn) the result was Leishmania in macrophages: 94.59%; Toxoplasma: -5.061%. With O=C(CCNc1ncccn1)N1CCCC(n2cccn2)C1 (stereo not drawn) the screen gave Leishmania in macrophages: -5.999%; MtTrpRS: 1.406%; Toxoplasma: -7.154%; CoaBC: 3.69%. Cn1cnnc1SCC(=O)N1C[C@H]2CC[C@@H]1CN(Cc1cccnc1)C2 gave MtTrpRS: 0.3018%; CoaBC: 0.6173%. For COc1ccc(-c2nnc([C@H]3CCN(C4CCC4)C3)o2)cc1 the result was Leishmania in macrophages: 5.132%; MtTrpRS: 0.07588%; Toxoplasma: -11.07%; CoaBC: 1.987%. For [H][C@@]12CCN(Cc3nc(C)cs3)C[C@@]1([H])O[C@@H](C)C2 the result was Leishmania in macrophages: -2.777%; Toxoplasma: -5.695%.

Result for CCC(C)N(Cc1sccc1C)C(=O)c1ccc(S(C)(=O)=O)cc1 (stereo not drawn) was Leishmania in macrophages: 2.091%; MtTrpRS: -2.819%; Toxoplasma: 0.1604%; CoaBC: 3.21%. With Clc1ccc(-c2ccc(C3CNCCO3)nc2)cc1 (stereo not drawn) the screen gave CoaBC: -0.4854%. For Cc1c(C(=O)N2CCC3(CCC(=O)N(CCN(C)C)C3)CC2)ccn1C the result was Leishmania in macrophages: 8.048%; MtTrpRS: -4.156%; Toxoplasma: -0.8943%; CoaBC: -11.57%. Cc1cnn(C2CCCN(C(=O)Cc3ccc(C)s3)C2)c1 (stereo not drawn) read Leishmania in macrophages: 5.649%; MtTrpRS: -6.361%; Toxoplasma: -2.55%; CoaBC: 15.79%. CS(=O)(=O)N1Cc2ccccc2CC2(CCN(Cc3ccccc3)C2)C1 (stereo not drawn) read Leishmania in macrophages: 2.316%; MtTrpRS: -3.544%; Toxoplasma: -2.473%; CoaBC: -4.474%. NC(=O)COc1cccc(C(=O)NCc2ccc(Cl)s2)c1 read Leishmania in macrophages: -4.819%; MtTrpRS: 9.325%; Toxoplasma: 4.76%; CoaBC: -5.052%. COCC1CC2(CCN(Cc3ccccn3)CC2)CN1C(C)C (stereo not drawn) gave Leishmania in macrophages: 32.03%; MtTrpRS: -2.397%; Toxoplasma: -1.451%; CoaBC: 3.99%.

OCCC1CN(c2ncnc3[nH]cnc23)CCN1Cc1ccccc1 (stereo not drawn) gave Leishmania in macrophages: 24.82%; MtTrpRS: -2.744%; Toxoplasma: -9.577%; CoaBC: 0.4202%. Result for Cn1cc(NC(=O)c2cccc(-n3cnnn3)c2)cn1 was Leishmania in macrophages: 16.04%; MtTrpRS: 1.861%; Toxoplasma: 9.94%; CoaBC: -16.67%. For CN(C)Cc1cnc2n1CCN(C(=O)Cc1ccsc1)CC2 the result was MtTrpRS: -2.913%. Result for CCCn1cnc2c1CN(C(=O)c1ccc(F)cc1)[C@H](C(=O)OC)C2 was Leishmania in macrophages: 4.912%; MtTrpRS: -2.06%; Toxoplasma: -4.487%; CoaBC: -5.305%. NC(=O)NCC(=O)N1C[C@H]2CC[C@@H]1CN(C1Cc3ccccc3C1)C2 gave MtTrpRS: 5.365%; CoaBC: -8.811%.

Repeated from the top, 2 entries:

{"compound": "O=C(NC[C@]12COC[C@H]1CN(Cc1cccnc1)C2)c1ccsc1", "MtTrpRS": -2.616, "CoaBC": 3.782}
{"compound": "Cl.OC1(Cn2ccc3ncccc32)CCN(Cc2ccccc2F)CC1", "Leishmania in macrophages": 9.222, "Toxoplasma": 9.34}

Measurements from “University of Dundee, Small-Polar-MMV Screening Library” (2021), ChEMBL document CHEMBL3988442.